From publication PMC8024564
Results are given in words; binding and its absence hold for the method and conditions named. Binding seen in cells or lysates may run through a third protein. Some results given as binding are weak or reduced against the parent protein; the word gives no strength.

By UniProt entry, the sequences of proteins in these tests, tags left out. Where a name states a change or a piece, a line headed by the entry shows the natural chain unless it says otherwise. Residues count along the entry.
UniProt P22366: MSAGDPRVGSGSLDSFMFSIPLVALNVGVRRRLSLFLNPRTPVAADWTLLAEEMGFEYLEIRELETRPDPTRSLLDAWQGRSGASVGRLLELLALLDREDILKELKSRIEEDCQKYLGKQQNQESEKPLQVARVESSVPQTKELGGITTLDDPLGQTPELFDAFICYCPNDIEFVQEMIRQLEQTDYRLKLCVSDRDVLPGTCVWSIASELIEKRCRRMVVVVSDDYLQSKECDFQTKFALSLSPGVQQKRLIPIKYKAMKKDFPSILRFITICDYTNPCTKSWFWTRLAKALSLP
UniProt Q9QUK6, residues 26-835: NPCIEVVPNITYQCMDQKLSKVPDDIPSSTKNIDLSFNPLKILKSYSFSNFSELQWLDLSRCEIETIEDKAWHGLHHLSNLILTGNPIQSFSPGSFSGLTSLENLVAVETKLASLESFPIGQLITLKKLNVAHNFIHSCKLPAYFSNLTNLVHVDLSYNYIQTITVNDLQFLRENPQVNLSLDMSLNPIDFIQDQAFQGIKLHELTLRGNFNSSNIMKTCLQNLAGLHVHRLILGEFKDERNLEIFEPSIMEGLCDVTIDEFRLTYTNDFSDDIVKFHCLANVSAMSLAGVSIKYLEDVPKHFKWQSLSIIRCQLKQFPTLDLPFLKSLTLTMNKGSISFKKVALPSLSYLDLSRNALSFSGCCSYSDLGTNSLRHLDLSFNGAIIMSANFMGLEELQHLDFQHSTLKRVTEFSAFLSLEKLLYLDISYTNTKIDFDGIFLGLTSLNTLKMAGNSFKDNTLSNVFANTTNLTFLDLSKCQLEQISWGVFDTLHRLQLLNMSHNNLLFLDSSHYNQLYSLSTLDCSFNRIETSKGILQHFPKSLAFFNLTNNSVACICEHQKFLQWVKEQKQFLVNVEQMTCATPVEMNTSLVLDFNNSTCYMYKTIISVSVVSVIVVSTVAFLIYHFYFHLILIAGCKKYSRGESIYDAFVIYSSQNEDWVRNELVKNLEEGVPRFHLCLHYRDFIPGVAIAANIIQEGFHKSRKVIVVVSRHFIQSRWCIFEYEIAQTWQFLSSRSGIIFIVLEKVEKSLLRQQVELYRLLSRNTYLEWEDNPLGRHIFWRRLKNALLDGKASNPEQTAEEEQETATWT

Molecular target: MyD88 (myeloid differentiation primary response gene 88), endogenous in J774A.1 macrophages (mouse (endogenous in J774A.1)) (UniProt P22366)
Assay: co-IP; J774A.1 cells stimulated with LPS (1 ug/ml); endogenous proteins immunoprecipitated with anti-MyD88 overnight at 4°C, protein A/G magnetic beads

## TLR4 (Toll-like receptor 4), endogenous in J774A.1 macrophages (from UniProt Q9QUK6 26-835)
  binding: binds
